From the supplement of paper PMC12823440, “Inhibitors supercharge kinase turnover through native proteolytic circuits” (Nature, 2025)
Structures can show the parent of a compound that is named as a salt. The list shows a part of the results. Hit calls seldom repeat between salt and free forms of one compound.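 Kinases were expressed as nanoluciferase fusions in K562 cells and luminescence was read every 4 h between 2 and 18 h as percent of control, DMSO set to 100% and a positive control to 0%. A time point counts as decreased when the signal drops significantly (2 sigma). The hit call is the authors' own, does not follow from the count of time points alone, and its rule is not shown.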

By UniProt entry, the sequences of proteins in these tests, tags left out. Where a name states a change or a piece, a line headed by the entry shows the natural chain unless it says otherwise.
UniProt O75460: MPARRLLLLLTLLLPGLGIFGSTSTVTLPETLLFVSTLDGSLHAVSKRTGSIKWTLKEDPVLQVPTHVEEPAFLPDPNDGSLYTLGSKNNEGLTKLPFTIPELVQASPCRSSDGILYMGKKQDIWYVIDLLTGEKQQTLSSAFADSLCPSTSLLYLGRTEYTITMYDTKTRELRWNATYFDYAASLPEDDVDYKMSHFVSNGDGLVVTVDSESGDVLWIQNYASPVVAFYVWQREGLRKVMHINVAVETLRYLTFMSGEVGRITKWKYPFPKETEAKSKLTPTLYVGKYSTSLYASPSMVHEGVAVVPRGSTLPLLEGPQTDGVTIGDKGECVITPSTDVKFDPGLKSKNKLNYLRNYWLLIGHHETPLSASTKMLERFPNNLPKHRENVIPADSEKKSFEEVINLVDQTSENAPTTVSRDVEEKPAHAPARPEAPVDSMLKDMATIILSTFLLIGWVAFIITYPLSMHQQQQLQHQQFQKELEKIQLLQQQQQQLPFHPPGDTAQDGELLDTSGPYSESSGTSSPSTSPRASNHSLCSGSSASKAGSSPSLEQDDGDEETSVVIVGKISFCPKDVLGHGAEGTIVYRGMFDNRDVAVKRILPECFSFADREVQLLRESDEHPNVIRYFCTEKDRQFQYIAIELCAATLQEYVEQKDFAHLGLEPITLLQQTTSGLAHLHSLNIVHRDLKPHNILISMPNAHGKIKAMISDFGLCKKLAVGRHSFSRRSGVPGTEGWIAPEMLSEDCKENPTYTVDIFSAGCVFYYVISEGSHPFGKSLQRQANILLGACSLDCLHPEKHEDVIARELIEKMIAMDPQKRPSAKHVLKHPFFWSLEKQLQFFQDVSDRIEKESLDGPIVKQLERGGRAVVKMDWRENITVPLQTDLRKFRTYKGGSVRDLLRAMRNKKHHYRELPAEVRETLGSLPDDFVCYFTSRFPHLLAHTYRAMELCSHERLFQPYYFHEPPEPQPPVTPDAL
UniProt P11362, whole entry, looked up: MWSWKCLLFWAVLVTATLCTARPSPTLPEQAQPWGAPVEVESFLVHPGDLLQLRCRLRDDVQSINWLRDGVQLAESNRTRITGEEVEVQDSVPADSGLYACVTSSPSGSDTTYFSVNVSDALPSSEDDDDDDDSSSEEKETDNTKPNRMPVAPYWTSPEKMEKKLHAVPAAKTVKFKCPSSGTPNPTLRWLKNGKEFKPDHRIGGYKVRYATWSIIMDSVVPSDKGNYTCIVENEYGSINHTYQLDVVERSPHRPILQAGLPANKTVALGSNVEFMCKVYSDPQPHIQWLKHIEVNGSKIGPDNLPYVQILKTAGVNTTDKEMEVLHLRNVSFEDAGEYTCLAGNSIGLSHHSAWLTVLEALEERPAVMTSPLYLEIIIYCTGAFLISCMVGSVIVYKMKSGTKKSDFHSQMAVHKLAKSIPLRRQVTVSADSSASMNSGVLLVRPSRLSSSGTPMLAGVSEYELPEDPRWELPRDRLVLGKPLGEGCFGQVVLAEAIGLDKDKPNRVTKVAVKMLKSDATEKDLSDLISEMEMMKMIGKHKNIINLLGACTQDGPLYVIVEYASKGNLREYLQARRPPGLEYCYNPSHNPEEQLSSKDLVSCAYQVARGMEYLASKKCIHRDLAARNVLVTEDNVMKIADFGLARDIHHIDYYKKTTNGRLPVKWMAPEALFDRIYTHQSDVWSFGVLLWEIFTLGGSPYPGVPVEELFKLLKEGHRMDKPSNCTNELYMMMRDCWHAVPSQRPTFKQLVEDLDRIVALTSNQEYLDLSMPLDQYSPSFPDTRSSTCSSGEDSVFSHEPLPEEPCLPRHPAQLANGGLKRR
UniProt P21802, whole entry, looked up: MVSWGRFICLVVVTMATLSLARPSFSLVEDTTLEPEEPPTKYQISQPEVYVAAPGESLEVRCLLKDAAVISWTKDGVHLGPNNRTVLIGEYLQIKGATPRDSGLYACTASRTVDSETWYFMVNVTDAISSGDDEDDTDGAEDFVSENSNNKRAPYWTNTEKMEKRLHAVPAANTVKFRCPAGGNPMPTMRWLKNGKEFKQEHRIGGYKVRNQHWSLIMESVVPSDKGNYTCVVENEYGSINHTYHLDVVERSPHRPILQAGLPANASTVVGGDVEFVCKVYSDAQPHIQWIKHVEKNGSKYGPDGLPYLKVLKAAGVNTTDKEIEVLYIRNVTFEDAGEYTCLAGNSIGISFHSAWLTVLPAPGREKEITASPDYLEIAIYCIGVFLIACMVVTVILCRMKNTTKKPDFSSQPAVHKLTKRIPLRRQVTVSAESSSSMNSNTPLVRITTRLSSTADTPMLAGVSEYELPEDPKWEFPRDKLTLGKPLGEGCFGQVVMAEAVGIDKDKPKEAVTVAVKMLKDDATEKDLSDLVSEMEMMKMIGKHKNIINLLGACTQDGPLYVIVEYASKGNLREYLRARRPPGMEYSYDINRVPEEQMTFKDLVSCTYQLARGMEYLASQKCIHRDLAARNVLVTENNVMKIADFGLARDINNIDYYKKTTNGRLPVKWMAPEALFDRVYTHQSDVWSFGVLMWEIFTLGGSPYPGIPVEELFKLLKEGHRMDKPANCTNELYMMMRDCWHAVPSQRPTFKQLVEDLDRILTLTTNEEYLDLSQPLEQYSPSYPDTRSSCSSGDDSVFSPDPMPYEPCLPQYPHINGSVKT
UniProt P36888, whole entry: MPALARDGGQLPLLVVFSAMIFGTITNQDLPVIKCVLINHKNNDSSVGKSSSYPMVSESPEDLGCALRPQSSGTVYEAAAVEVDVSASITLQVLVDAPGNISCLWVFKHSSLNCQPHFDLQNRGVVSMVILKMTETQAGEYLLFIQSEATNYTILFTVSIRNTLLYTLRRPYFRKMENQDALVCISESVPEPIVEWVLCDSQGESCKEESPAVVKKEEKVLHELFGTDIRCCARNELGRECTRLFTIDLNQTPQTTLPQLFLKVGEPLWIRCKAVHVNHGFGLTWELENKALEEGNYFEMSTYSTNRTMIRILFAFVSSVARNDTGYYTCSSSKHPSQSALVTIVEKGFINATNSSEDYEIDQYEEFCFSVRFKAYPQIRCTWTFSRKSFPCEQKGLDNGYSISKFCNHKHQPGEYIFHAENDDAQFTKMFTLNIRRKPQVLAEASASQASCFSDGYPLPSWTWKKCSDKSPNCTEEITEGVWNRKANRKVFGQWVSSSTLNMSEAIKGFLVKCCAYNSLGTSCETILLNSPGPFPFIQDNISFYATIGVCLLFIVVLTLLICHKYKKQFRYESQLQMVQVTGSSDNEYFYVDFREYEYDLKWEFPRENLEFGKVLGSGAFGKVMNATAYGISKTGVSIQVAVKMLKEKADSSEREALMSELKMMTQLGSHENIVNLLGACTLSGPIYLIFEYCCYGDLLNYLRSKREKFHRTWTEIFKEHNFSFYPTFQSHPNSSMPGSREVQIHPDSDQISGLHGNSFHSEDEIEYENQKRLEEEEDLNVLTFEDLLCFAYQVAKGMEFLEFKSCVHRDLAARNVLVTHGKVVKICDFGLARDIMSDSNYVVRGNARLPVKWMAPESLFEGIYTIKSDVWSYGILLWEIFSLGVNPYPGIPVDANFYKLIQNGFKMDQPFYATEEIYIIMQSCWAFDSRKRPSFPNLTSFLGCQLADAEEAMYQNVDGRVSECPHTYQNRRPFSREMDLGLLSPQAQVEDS
UniProt P06241, whole entry, looked up: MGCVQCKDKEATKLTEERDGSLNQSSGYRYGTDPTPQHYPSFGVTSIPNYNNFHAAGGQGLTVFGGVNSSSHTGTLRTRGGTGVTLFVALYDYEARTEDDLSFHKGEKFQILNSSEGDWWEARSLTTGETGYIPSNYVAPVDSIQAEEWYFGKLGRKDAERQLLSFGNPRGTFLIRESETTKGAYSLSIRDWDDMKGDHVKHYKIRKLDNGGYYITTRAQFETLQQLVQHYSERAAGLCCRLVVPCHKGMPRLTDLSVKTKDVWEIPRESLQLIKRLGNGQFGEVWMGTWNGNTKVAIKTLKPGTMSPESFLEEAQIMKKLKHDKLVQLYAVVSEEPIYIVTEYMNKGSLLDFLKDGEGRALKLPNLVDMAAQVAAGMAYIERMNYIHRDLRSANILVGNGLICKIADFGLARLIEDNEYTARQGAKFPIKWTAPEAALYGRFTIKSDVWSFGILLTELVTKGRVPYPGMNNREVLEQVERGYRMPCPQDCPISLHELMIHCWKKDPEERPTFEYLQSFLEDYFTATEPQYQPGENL
UniProt P49840: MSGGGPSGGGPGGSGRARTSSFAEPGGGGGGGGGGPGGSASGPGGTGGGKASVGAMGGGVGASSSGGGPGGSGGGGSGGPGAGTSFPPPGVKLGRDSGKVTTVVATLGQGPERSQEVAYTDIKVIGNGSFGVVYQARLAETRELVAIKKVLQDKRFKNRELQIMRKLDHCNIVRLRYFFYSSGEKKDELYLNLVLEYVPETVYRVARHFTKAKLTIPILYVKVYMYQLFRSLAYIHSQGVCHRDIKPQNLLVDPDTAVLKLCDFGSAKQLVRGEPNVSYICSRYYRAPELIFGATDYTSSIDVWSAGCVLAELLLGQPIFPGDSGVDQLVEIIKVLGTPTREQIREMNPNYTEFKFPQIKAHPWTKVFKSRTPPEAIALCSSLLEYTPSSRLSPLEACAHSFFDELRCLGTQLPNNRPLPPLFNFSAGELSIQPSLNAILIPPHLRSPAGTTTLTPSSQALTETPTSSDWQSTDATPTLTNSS
UniProt P14616: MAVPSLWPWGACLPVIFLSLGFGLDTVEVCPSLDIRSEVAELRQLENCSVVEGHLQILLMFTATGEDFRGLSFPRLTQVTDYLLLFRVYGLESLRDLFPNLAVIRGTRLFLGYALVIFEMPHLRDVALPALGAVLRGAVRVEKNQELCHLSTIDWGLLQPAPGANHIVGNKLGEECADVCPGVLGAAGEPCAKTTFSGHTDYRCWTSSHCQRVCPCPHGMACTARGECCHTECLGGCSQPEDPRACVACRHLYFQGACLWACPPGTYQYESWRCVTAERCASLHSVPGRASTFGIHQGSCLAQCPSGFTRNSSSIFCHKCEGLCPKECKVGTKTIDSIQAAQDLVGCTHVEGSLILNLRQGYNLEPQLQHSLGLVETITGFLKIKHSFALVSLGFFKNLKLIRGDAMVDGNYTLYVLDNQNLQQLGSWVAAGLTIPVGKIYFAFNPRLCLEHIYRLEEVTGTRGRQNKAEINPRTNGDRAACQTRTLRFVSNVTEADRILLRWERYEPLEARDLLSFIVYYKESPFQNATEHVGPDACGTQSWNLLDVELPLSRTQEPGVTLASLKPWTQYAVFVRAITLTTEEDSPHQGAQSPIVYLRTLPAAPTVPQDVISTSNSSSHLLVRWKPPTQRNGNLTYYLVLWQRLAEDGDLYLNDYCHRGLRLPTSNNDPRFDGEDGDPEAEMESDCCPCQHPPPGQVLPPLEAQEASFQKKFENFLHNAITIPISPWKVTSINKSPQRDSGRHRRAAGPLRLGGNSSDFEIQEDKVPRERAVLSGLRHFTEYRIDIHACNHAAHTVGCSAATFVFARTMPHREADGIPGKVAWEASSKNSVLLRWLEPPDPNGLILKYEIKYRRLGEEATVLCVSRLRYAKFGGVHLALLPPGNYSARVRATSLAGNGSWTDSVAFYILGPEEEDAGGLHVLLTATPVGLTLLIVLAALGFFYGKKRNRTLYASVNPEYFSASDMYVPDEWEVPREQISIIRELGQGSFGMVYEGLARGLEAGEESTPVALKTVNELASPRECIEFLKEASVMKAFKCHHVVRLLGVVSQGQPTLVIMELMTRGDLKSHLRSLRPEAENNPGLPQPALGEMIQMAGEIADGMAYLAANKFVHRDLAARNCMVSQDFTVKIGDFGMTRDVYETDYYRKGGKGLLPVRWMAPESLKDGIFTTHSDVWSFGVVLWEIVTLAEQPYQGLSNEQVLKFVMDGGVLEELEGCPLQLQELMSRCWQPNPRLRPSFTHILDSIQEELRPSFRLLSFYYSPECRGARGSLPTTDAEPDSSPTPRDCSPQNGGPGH

Assays:
Assay in all cases: kinase-Nluc reporter destabilization hit call (1 = scored as downregulated) (binary); higher = compound decreases kinase abundance
Settings in all cases: K562; 2-18 h
ERN1 = ERN1 (UniProt O75460)
FGFR1 = FGFR1 (UniProt P11362)
FGFR2 = FGFR2 (UniProt P21802)
FGFR3 = FGFR3 (UniProt P22607)
FGR = FGR (UniProt P09769)
FLT3 = FLT3 (UniProt P36888)
FYN = FYN (UniProt P06241)
GSK3A = GSK3A (UniProt P49840)
HER2 = HER2 (UniProt P04626)
INSRR = INSRR (UniProt P14616)

Measured: kinase-Nluc reporter destabilization hit call

O=Nc1c(-c2c(O)[nH]c3ccc(I)cc23)[nH]c2ccccc12 [5-Iodo-indirubin-3'-monoxime] (10 µM)
inactive: ERN1 = 0 | FGFR1 = 0 | FGFR2 = 0 | FGFR3 = 0 | FGR 0 | FLT3 = 0 | FYN 0 | GSK3A 0 | HER2 = 0 | INSRR 0

Cc1cc(Nc2ncnc3ccc(NC4=NC(C)(C)CO4)cc23)ccc1Oc1ccn2ncnc2c1 [Tucatinib (hemiethanolate)] (2.5 µM)
inactive: ERN1 = 0 | FGFR1 = 0 | FGFR2 = 0 | FGFR3 = 0 | FGR 0 | FLT3 = 0 | FYN 0 | GSK3A 0 | HER2 = 0 | INSRR 0

CNc1nc(Nc2ccc(C(=O)N3CCOCC3)cc2OC)nc2[nH]cc(Cl)c12 (2.5 µM)
inactive: ERN1 = 0 | FGFR1 = 0 | FGFR2 = 0 | FGFR3 = 0 | FGR 0 | FLT3 = 0 | FYN 0 | GSK3A 0 | HER2 = 0 | INSRR 0

FC(F)(F)c1ccc(CNc2ccc(Cc3c[nH]c4ncccc34)cn2)cc1 (10 µM)
inactive: ERN1 = 0 | FGFR1 = 0 | FGFR2 = 0 | FGFR3 = 0 | FGR 0 | FLT3 = 0 | FYN 0 | GSK3A 0 | HER2 = 0 | INSRR 0

CCCS(=O)(=O)Nc1ccc(F)c(C(=O)c2c[nH]c3ncc(-c4ccc(Cl)cc4)cc23)c1F [Vemurafenib] (10 µM)
inactive: ERN1 = 0 | FGFR1 = 0 | FGFR2 = 0 | FGFR3 = 0 | FGR 0 | FLT3 = 0 | FYN 0 | GSK3A 0 | HER2 = 0 | INSRR 0

CC1(C)C(O[C@@H]2OC[C@@H](O)[C@H](O)[C@H]2O)CC[C@]23CC24CC[C@]2(C)[C@@H]([C@@]5(C)CC[C@@H](C(C)(C)O)O5)[C@H](O)C[C@@]2(C)C4C[C@@H](O[C@@H]2O[C@H](CO)[C@@H](O)[C@H](O)[C@H]2O)C13 (stereo not given in full) [Astragaloside IV] (10 µM)
inactive: ERN1 = 0 | FGFR1 = 0 | FGFR2 = 0 | FGFR3 = 0 | FGR 0 | FLT3 = 0 | FYN 0 | GSK3A 0 | HER2 = 0 | INSRR 0

COc1ccc(Cl)c(Nc2nc3ccccc3nc2NS(=O)(=O)c2cccc(NC(=O)C(C)(C)N)c2)c1 [Pilaralisib] (10 µM)
inactive: ERN1 = 0 | FGFR1 = 0 | FGFR2 = 0 | FGFR3 = 0 | FGR 0 | FLT3 = 0 | FYN 0 | GSK3A 0 | HER2 = 0 | INSRR 0

Cc1cc2ncc(-c3ccc(O)c(O)c3)nc2cc1C [Tyrphostin AG1433] (10 µM)
inactive: ERN1 = 0 | FGFR1 = 0 | FGFR2 = 0 | FGFR3 = 0 | FGR 0 | FLT3 = 0 | FYN 0 | GSK3A 0 | HER2 = 0 | INSRR 0

Nc1ncnc2c1c(-c1ccc(Oc3ccccc3)cc1)nn2C1CCCC1 (2.5 µM)
inactive: ERN1 = 0 | FGFR1 = 0 | FGFR2 = 0 | FGFR3 = 0 | FGR 0 | FLT3 = 0 | FYN 0 | GSK3A 0 | HER2 = 0 | INSRR 0

Cc1[nH]c(/C=C2\C(=O)Nc3ccccc32)c(C)c1CCC(=O)O [Orantinib] (10 µM)
inactive: ERN1 = 0 | FGFR1 = 0 | FGFR2 = 0 | FGFR3 = 0 | FGR 0 | FLT3 = 0 | FYN 0 | GSK3A 0 | HER2 = 0 | INSRR 0

Cc1[nH]c(/C=C2\C(=O)Nc3ccc(F)cc32)c(C)c1C(=O)N[C@H]1CCN(C(=O)N(C)C)C1 [Vorolanib] (10 µM)
inactive: ERN1 = 0 | FGFR1 = 0 | FGFR2 = 0 | FGFR3 = 0 | FGR 0 | FLT3 = 0 | FYN 0 | GSK3A 0 | HER2 = 0 | INSRR 0

CN(C)CCCOc1ccc(-c2ccc3ncc4c(c3c2)n(C2CCOCC2)c(=O)n4C)cn1 (2 µM)
inactive: ERN1 = 0 | FGFR1 = 0 | FGFR2 = 0 | FGFR3 = 0 | FGR 0 | FLT3 = 0 | FYN 0 | GSK3A 0 | HER2 = 0 | INSRR 0

Copied from the results shown (2 entries):
Cc1cc(Nc2ncnc3ccc(NC4=NC(C)(C)CO4)cc23)ccc1Oc1ccn2ncnc2c1 [Tucatinib (hemiethanolate)] (2.5 µM)
inactive: ERN1 = 0 | FGFR1 = 0 | FGFR2 = 0 | FGFR3 = 0 | FGR 0 | FLT3 = 0 | FYN 0 | GSK3A 0 | HER2 = 0 | INSRR 0

CNc1nc(Nc2ccc(C(=O)N3CCOCC3)cc2OC)nc2[nH]cc(Cl)c12 (2.5 µM)
inactive: ERN1 = 0 | FGFR1 = 0 | FGFR2 = 0 | FGFR3 = 0 | FGR 0 | FLT3 = 0 | FYN 0 | GSK3A 0 | HER2 = 0 | INSRR 0

Remaining list, next part.

Oc1cc2c(cc1O)C(Cc1cccc3ccccc13)NCC2 (stereo not given) (10 µM)
inactive: ERN1 = 0 | FGFR1 = 0 | FGFR2 = 0 | FGFR3 = 0 | FGR 0 | FLT3 = 0 | FYN 0 | GSK3A 0 | HER2 = 0 | INSRR 0

CCN1CCN(Cc2ccc(-c3cc4c(N[C@H](C)c5ccccc5)ncnc4[nH]3)cc2)CC1 (2.5 µM)
inactive: ERN1 = 0 | FGFR1 = 0 | FGFR2 = 0 | FGFR3 = 0 | FGR 0 | FLT3 = 0 | FYN 0 | GSK3A 0 | HER2 = 0 | INSRR 0

COc1ncc(Cl)cc1S(=O)(=O)Nc1ccc(F)c(C#Cc2cnc(N)nc2)c1F (2.5 µM)
inactive: ERN1 = 0 | FGFR1 = 0 | FGFR2 = 0 | FGFR3 = 0 | FGR 0 | FLT3 = 0 | FYN 0 | GSK3A 0 | HER2 = 0 | INSRR 0

CNC(=O)c1cc(COc2nnc(Nc3ccc(Cl)cc3)c3ccoc23)ccn1 [Telatinib] (10 µM)
inactive: ERN1 = 0 | FGFR1 = 0 | FGFR2 = 0 | FGFR3 = 0 | FGR 0 | FLT3 = 0 | FYN 0 | GSK3A 0 | HER2 = 0 | INSRR 0

C=CC(=O)Nc1cccc(Nc2nc(Nc3ccc(N4CCN(C(C)=O)CC4)cc3OC)ncc2C(F)(F)F)c1 [Rociletinib] (10 µM)
inactive: ERN1 = 0 | FGFR1 = 0 | FGFR2 = 0 | FGFR3 = 0 | FGR 0 | FLT3 = 0 | FYN 0 | GSK3A 0 | HER2 = 0 | INSRR 0

S=C(SSC(=S)N1CCOCC1)N1CCOCC1 (10 µM)
inactive: ERN1 = 0 | FGFR1 = 0 | FGFR2 = 0 | FGFR3 = 0 | FGR 0 | FLT3 = 0 | FYN 0 | GSK3A 0 | HER2 = 0 | INSRR 0

O=c1cc(CN2CCOCC2)occ1OCCCCCSc1ccnc2cc(C(F)(F)F)ccc12 (10 µM)
inactive: ERN1 = 0 | FGFR1 = 0 | FGFR2 = 0 | FGFR3 = 0 | FGR 0 | FLT3 = 0 | FYN 0 | GSK3A 0 | HER2 = 0 | INSRR 0

Oc1ccc(Nc2nc(-c3ccc(Cl)cc3)cs2)cc1 (10 µM)
inactive: ERN1 = 0 | FGFR1 = 0 | FGFR2 = 0 | FGFR3 = 0 | FGR 0 | FLT3 = 0 | FYN 0 | GSK3A 0 | HER2 = 0 | INSRR 0

C[C@H](c1ccnc(Nc2nc3ccc(-c4cc(N(C)C)ncn4)cc3[nH]2)c1)N1CCN(C(=O)CC(F)(F)F)CC1 (2.5 µM)
inactive: ERN1 = 0 | FGFR1 = 0 | FGFR2 = 0 | FGFR3 = 0 | FGR 0 | FLT3 = 0 | FYN 0 | GSK3A 0 | HER2 = 0 | INSRR 0

CS(=O)(=O)Nc1cc(-c2ccc3ncnc(Nc4ccc(F)c(Cl)c4)c3c2)cnc1Cl (2.5 µM)
inactive: ERN1 = 0 | FGFR1 = 0 | FGFR2 = 0 | FGFR3 = 0 | FGR 0 | FLT3 = 0 | FYN 0 | GSK3A 0 | HER2 = 0 | INSRR 0

N#Cc1c(C2CCNCC2)cc(-c2c(O)cccc2OCC2CC2)nc1N [ACHP (Hydrochloride)] (10 µM)
inactive: ERN1 = 0 | FGFR1 = 0 | FGFR2 = 0 | FGFR3 = 0 | FGR 0 | FLT3 = 0 | FYN 0 | GSK3A 0 | HER2 = 0 | INSRR 0

CC#CC(=O)N1CC[C@@H](n2c(=O)n(-c3ccc(Oc4ccccc4)cc3)c3c(N)ncnc32)C1 [Tirabrutinib (hydrochloride)] (10 µM)
inactive: ERN1 = 0 | FGFR1 = 0 | FGFR2 = 0 | FGFR3 = 0 | FGR 0 | FLT3 = 0 | FYN 0 | GSK3A 0 | HER2 = 0 | INSRR 0

CCc1cc2c(cc1N1CCC(N3CCOCC3)CC1)C(C)(C)c1[nH]c3cc(C#N)ccc3c1C2=O [Alectinib (Hydrochloride)] (2 µM)
inactive: ERN1 = 0 | FGFR1 = 0 | FGFR2 = 0 | FGFR3 = 0 | FGR 0 | FLT3 = 0 | FYN 0 | GSK3A 0 | HER2 = 0 | INSRR 0

Cc1[nH]c(/C=C2\C(=O)Nc3ccccc32)c(C)c1CCC(=O)O [(Z)-Orantinib] (10 µM)
inactive: ERN1 = 0 | FGFR1 = 0 | FGFR2 = 0 | FGFR3 = 0 | FGR 0 | FLT3 = 0 | FYN 0 | GSK3A 0 | HER2 = 0 | INSRR 0

NC(=O)c1nnc(N[C@@H]2CCCC[C@@H]2N)nc1Nc1cccc2cc[nH]c12 (10 µM)
inactive: ERN1 = 0 | FGFR1 = 0 | FGFR2 = 0 | FGFR3 = 0 | FGR 0 | FLT3 = 0 | FYN 0 | GSK3A 0 | HER2 = 0 | INSRR 0

CC[C@@H](Oc1nc(Oc2cc(C)cc(-c3cccc(CN)c3)c2)c(F)cc1F)C(=O)O (10 µM)
inactive: ERN1 = 0 | FGFR1 = 0 | FGFR2 = 0 | FGFR3 = 0 | FGR 0 | FLT3 = 0 | FYN 0 | GSK3A 0 | HER2 = 0 | INSRR 0

O=C1NC(=O)/C(=C/c2ccc3nccnc3c2)S1 (10 µM)
inactive: ERN1 = 0 | FGFR1 = 0 | FGFR2 = 0 | FGFR3 = 0 | FGR 0 | FLT3 = 0 | FYN 0 | GSK3A 0 | HER2 = 0 | INSRR 0
